Test results: PMC9427758
No constants are given. Whether binding was seen depends on the method and setting. Binding seen in cells or lysates may run through a third protein. Some results given as binding are weak or reduced against the parent protein; the word gives no strength.

By UniProt entry, the sequences of proteins in these tests, tags left out. Residues count along the entry.
UniProt Q8BNA6, residues 32-4555: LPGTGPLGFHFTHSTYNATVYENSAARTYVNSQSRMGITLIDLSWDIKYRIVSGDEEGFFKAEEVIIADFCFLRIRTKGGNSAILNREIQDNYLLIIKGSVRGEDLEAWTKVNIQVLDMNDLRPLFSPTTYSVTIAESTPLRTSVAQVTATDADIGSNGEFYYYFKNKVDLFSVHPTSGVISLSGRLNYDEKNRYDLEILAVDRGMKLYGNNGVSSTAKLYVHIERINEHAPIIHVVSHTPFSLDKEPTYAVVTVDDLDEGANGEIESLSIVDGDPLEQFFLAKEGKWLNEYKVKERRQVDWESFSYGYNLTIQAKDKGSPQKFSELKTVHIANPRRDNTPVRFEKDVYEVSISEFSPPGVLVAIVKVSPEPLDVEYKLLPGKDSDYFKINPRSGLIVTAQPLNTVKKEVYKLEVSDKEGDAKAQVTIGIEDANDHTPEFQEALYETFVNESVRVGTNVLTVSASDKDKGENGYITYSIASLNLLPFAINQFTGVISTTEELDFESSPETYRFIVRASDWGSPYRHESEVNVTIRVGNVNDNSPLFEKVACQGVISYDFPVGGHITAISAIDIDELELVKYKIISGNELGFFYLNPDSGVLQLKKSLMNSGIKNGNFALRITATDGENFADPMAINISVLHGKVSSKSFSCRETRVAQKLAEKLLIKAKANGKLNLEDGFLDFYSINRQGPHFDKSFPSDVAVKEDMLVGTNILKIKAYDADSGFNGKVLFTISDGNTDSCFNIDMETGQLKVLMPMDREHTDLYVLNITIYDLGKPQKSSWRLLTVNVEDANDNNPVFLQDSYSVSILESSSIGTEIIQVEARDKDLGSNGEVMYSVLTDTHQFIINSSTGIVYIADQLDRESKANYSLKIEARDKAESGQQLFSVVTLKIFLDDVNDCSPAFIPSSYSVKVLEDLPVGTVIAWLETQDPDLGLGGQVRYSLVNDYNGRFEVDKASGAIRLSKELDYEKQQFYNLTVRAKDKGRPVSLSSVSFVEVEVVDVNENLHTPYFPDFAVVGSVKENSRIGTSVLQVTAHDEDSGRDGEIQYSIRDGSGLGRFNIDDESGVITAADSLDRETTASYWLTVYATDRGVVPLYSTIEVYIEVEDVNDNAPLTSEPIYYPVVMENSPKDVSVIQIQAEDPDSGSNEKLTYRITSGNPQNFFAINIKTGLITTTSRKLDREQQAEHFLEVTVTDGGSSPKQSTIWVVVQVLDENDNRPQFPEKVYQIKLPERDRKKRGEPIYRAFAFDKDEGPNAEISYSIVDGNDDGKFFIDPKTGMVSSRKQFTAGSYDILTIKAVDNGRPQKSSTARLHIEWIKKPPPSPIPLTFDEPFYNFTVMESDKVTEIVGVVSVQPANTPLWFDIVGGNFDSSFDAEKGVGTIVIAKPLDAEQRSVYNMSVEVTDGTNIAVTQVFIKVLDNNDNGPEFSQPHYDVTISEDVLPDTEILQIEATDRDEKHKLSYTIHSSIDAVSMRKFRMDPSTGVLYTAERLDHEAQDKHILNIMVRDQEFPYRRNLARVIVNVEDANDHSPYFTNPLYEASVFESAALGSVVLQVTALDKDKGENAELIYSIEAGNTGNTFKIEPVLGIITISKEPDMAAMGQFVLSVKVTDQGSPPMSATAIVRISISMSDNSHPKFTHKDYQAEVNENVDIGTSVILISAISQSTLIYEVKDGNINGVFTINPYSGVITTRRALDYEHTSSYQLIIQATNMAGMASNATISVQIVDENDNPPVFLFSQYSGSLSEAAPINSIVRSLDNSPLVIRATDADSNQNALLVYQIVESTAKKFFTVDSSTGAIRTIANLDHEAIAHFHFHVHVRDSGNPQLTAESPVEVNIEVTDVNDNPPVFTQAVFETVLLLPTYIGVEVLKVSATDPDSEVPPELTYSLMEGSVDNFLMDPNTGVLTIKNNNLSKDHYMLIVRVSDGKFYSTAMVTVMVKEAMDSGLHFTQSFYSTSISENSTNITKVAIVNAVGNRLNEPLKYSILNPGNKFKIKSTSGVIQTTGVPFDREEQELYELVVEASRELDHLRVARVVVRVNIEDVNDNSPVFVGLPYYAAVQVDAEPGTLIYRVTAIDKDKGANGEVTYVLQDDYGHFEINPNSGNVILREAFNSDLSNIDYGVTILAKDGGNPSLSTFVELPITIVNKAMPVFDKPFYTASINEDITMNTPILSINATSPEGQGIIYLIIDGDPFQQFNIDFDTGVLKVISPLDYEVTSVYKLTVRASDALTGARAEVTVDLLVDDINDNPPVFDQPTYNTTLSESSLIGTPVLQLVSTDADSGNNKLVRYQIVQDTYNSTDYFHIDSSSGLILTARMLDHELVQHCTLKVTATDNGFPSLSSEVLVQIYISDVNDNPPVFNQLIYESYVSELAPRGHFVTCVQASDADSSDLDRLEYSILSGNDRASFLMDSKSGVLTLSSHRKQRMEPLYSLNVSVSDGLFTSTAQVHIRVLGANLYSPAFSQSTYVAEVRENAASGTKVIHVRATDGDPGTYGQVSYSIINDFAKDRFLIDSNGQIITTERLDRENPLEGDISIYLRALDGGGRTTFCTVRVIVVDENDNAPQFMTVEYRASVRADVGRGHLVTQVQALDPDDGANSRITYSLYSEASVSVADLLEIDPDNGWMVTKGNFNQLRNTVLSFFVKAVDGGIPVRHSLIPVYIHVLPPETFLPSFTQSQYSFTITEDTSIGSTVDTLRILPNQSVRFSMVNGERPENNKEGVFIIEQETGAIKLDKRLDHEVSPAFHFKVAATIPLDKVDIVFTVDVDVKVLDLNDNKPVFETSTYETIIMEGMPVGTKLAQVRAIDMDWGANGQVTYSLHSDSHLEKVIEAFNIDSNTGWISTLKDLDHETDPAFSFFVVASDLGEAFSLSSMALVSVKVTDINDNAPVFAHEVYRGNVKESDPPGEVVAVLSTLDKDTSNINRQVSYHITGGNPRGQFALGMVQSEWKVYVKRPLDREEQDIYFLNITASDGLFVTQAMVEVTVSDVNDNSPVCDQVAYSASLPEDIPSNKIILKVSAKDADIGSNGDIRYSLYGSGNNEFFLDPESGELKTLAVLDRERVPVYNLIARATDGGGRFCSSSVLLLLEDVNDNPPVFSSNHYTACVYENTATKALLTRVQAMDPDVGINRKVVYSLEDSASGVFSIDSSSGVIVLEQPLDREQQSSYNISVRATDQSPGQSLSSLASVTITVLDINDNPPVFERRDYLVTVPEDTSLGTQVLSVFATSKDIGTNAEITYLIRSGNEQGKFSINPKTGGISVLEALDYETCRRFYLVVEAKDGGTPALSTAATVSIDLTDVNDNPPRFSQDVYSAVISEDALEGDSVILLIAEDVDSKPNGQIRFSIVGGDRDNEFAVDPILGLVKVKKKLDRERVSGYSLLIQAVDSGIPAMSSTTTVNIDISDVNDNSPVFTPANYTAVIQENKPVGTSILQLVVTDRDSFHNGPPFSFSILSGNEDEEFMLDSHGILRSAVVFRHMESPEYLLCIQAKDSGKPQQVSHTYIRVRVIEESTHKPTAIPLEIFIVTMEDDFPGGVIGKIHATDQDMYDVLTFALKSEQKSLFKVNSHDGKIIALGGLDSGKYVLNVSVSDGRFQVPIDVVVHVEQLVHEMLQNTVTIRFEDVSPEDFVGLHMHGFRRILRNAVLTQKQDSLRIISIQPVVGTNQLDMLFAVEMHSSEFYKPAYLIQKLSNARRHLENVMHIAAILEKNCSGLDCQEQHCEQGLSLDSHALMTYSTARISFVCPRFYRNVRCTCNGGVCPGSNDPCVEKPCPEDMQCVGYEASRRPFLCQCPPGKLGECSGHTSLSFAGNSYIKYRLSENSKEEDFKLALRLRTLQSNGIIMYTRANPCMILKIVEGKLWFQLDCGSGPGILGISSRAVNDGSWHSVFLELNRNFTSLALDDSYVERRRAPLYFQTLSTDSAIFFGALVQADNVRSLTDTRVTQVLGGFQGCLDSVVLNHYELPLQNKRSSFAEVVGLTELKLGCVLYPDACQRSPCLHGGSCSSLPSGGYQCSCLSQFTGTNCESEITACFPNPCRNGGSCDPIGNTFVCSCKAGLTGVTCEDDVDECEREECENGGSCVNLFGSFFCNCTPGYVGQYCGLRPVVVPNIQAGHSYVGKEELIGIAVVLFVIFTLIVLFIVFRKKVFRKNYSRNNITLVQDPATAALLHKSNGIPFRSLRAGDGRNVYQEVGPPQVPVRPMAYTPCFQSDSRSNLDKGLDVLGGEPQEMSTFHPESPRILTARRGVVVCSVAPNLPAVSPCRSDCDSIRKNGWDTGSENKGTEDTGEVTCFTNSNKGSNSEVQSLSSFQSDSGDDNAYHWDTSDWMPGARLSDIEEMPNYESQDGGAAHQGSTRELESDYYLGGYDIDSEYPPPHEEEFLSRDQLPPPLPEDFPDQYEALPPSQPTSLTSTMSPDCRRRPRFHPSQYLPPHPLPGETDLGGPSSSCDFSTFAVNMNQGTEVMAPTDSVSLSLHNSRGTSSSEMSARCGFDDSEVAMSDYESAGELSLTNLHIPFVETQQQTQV

Target: Fat3 (atypical cadherin), endogenous (mouse (endogenous in E11.5 spinal cord)) (UniProt Q8BNA6)
Assay: co-IP; E11.5 mouse spinal cord extract (20 spinal cords pooled for each immunoprecipitation); IP buffer (20 mM Tris-HCl pH 8.0, 0.5% NP-40, 1 mM EDTA, 150 mM NaCl, 10% glycerol); precipitated with rabbit anti-Fat3, blotted with anti-Lats1

binding: binds
B1: Lats1, endogenous (enzyme, UniProt Q8BYR2 1-1129)
chain: MKRGEKPEGYRQMRPKTFPASNYPGSSRQMLQEIRESLRNLSKPSDASKAEHNLNKMSTEDPRQVRNPPKFGTHHKALQEIRNSLLPFANETSSSRSPSEVNPQMFQDLQAAGFDEDMVIQALQKTNNRSIEAAVEFISKMSYQDPRREQMSAAAARPINATMKPGNVQHSINRKQSWKGSKESLVPQRHGPSLGENVVYRSESPNSQADVGRPLSGSGIAAFAQAHPSNGQRVNPPPPPQVRSVTPPPPPRGQTPPPRGTTPPPPSWEPSSQTKRYSGNMEYVISRISPVPPGAWQEGYPPPPLTTSPMNPPSQAQRAISSVPVGRQPIIMQSTSKFNFTPGRPGVQNGGGQSDFIVHQNVPTGSVTRQPPPPYPLTPANGQSPSALQTGASAAPPSFANGNVPQSMMVPNRNSHNMELYNINVPGLQTAWPQSSSAPAQSSPSGGHEIPTWQPNIPVRSNSFNNPLGSRASHSANSQPSATTVTAITPAPIQQPVKSMRVLKPELQTALAPTHPSWMPQPVQTVQPTPFSEGTASSVPVIPPVAEAPSYQGPPPPYPKHLLHQNPSVPPYESVSKPCKDEQPSLPKEDDSEKSADSGDSGDKEKKQITTSPITVRKNKKDEERRESRIQSYSPQAFKFFMEQHVENVLKSHQQRLHRKKQLENEMMRVGLSQDAQDQMRKMLCQKESNYIRLKRAKMDKSMFVKIKTLGIGAFGEVCLARKVDTKALYATKTLRKKDVLLRNQVAHVKAERDILAEADNEWVVRLYYSFQDKDNLYFVMDYIPGGDMMSLLIRMGIFPENLARFYIAELTCAVESVHKMGFIHRDIKPDNILIDRDGHIKLTDFGLCTGFRWTHDSKYYQSGDHPRQDSMDFSNEWGDPSNCRCGDRLKPLERRAARQHQRCLAHSLVGTPNYIAPEVLLRTGYTQLCDWWSVGVILFEMLVGQPPFLAQTPLETQMKVINWQTSLHIPPQAKLSPEASDLIIKLCRGPEDRLGKNGADEIKAHPFFKTIDFSSDLRQQSASYIPKITHPTDTSNFDPVDPDKLWSDGSEEENISDTLNGWYKNGKHPEHAFYEFTFRRFFDDNGYPYNYPKPIEYEYIHSQGSEQQSDEDDQHTSSDGNNRDLVYV
